# Results published in PubChem BioAssay AID662 (National Center for Advancing Translational Sciences (NCATS), 2007).
# The other results are listed elsewhere or left out. The main result of the screen is listed elsewhere. These columns were measured beside it and carry no call. The list favours compounds with an active or inconclusive main result. The note in brackets gives the kind of curve behind each potency; many fits are weak.
# Assay: Cell signaling CRE-BLA (Fsk stim)
# Conditions: CHO CRE-bla reporter (cAMP response element driving beta-lactamase), forskolin EC10, beta-lactamase ratio; measured here: 460 nm blue channel
# Outline: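 Modulation of forskolin-driven signalling is measured in CHO cells carrying a CRE-controlled beta-lactamase reporter. Cells are stimulated with EC10 NKH 477 in the presence of titrated compound for 3 h at 37 °C, then loaded with CCF4 for 2 h at room temperature.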
row,Compound,AC50
1,COc1ccc(CNc2cc(-c3cccnc3)ncn2)c(OC)c1,"7.94 µM [rising, partial curve]"
2,CC1CN(C(=O)Cc2ccc(-c3ccccc3)cc2)CC(C)O1 (configuration not stated),"0.501 µM [falling, full curve, poor fit]"
3,COc1ccc(OC)c(-c2c[n+](=O)c3c(n2[O-])CCCC3)c1,"1.26 µM [falling, partial curve]"
4,CCOC(=O)C1C(=O)NC(N2CCN(c3ccccc3)CC2)=NC1c1ccco1 (configuration not stated),"6.31 µM [falling, partial curve, poor fit]"
5,Cc1ccc2c(c1)c1ncnc(N3CCOCC3)c1n2C,"3.16 µM [rising, full curve]"
6,O=C(NCCc1c[nH]c2ccccc12)C1CCN(c2nnc(N3CCCC3=O)s2)CC1,"0.00398 µM [falling, full curve, poor fit]"
7,COCCNC(=O)COc1cc(=O)n(C)c2ccccc12,"7.94 µM [rising, single point]"
8,COCCn1c(=O)c(-c2cccs2)nc2cnc(N3CCNCC3)nc21,"3.16 µM [rising, full curve]"
9,Cn1c(SCC(=O)Nc2cccc(NC(=O)c3cccs3)c2)nnc1-c1ccncc1,"15.8 µM [falling, single point]"
10,CC(C)(C)n1nnnc1C(c1cccs1)N(Cc1ccccc1)Cc1ccco1 (configuration not stated),"12.6 µM [falling, single point]"
11,COc1c(C)cc(Br)cc1C(=O)Nc1cccc(-c2nc3ncccc3o2)c1,"5.01 µM [rising, single point]"
12,Cn1c(/C(C#N)=C(\O)c2ccc(S(=O)(=O)N3CCCCC3)cc2)nc2ccccc21,"0.1 µM [rising, full curve]"
13,COc1ccccc1N(CC(=O)Nc1ccccc1C(=O)NC(C)C)S(C)(=O)=O,"0.0126 µM [falling, partial curve]"
14,COc1ccc(C(=O)Nc2ccc(Cl)cn2)cc1Cl,"1.58 µM [rising, partial curve, poor fit]"
15,c1cncc(-c2nccc(NCc3cccs3)n2)c1,"1.58 µM [rising, full curve]"
16,Cc1cccc(-n2nnc(C(=O)Nc3ccc(F)cc3)c2N)c1,"0.794 µM [rising, partial curve]"
17,O=C(Nc1ccc(S(=O)(=O)N2CCc3ccccc3C2)cc1)C1CCCO1 (configuration not stated),"1 µM [falling, single point]"
18,CCOc1ccccc1CN1C(=O)c2ccccc2C1C(=O)NCC1CCCO1 (configuration not stated),"0.316 µM [falling, partial curve]"
19,CC(NC(=O)CSc1ncnc2nc[nH]c12)c1ccccc1 (configuration not stated),"0.794 µM [falling, full curve]"
20,CS(=O)(=O)N1CCC(C(=O)NCCN2CCN(Cc3ccccc3)CC2)CC1,"25.1 µM [rising, single point]"
21,O=c1c(-c2cc(F)cc(F)c2)nc2cnc(N3CCNCC3)nc2n1C1CC1,"3.98 µM [rising, partial curve]"
22,Nc1nc(N)c2sc3nc4c(cc3c2n1)CCC4,"10 µM [rising, partial curve]"
23,COCCNC(C)C(=O)C12CC3CC(CC(C3)C1)C2 (configuration not stated),"20 µM [rising, single point]"
24,COC(=O)[C@@]1(Cc2ccc(OC)cc2)[C@H]2c3cc(C(=O)N4CCCC4)n(CCc4ccc(O)c(O)c4)c3C[C@H]2CN1C(=O)c1ccccc1,"12.6 µM [rising, partial curve]"
25,O=c1oc(-c2cccs2)nc2sc3c(c12)CCCCC3,"10 µM [rising, partial curve]"
26,c1coc(-c2nc(-c3ccncc3)no2)c1,"1 µM [rising, full curve, poor fit]"

row,Compound,AC50
1,CCC(NS(=O)(=O)c1ccc(C)cc1)C(=O)N1CCC2(O)CCCCC2C1 (configuration not stated),"3.98 µM [falling, partial curve]"
2,Cc1cccc2nc(Cn3c(=O)n(CCC(=O)NCc4ccco4)c(=O)c4ccccc43)cc(=O)n12,"0.316 µM [falling, partial curve]"
3,O=C(c1ccncc1)N1CCC2(CC1)CN(Cc1cc(C(F)(F)F)cc(C(F)(F)F)c1)C2,"0.126 µM [falling, single point]"
4,COc1cc(OC)c2cc(-c3ccncc3)cnc2c1,"3.16 µM [rising, full curve]"
5,c1ccc(-n2ncc3c(N4CCN(c5ccccn5)CC4)nc(N4CCCCC4)nc32)cc1,"2.51 µM [falling, partial curve, poor fit]"
6,CCn1c(=O)c(C(=O)CN2CCOCC2)c(N)n(Cc2ccccc2)c1=O,"25.1 µM [falling, single point]"
7,CCOC(=O)c1c(C)n(C)c2ccc(OCC(O)CN3CCN(C)CC3)cc12 (configuration not stated),"12.6 µM [rising, partial curve]"
8,CCOc1ncccc1C(=O)OCC(=O)Nc1ncc(C(F)(F)F)cc1Cl,"5.01 µM [falling, single point]"
9,Cn1c(SCC(=O)Nc2ccccc2)nc(O)cc1=O,"0.00316 µM [falling, full curve, poor fit]"
10,Cc1cc(NC(=O)CSc2ccc3nnc(-c4cccc(F)c4)n3n2)no1,"0.631 µM [falling, partial curve]"
11,Oc1c(C(Nc2nc3ccccc3s2)c2ccco2)ccc2cccnc12 (configuration not stated),"20 µM [rising, single point]"
12,O=C(Cn1nnc(-c2ccc(Cl)cc2)n1)NCCC1=CCCCC1,"5.01 µM [falling, partial curve]"
13,CNc1nc(OC)nc(N2CCOCC2)n1,"10 µM [rising, partial curve]"
14,CC(C)N(Cc1nc(-c2ccccc2)no1)S(=O)(=O)c1ccccc1,"12.6 µM [falling, single point]"
15,O=c1c(-c2cccs2)nc2cnc(Oc3cccc(Cl)c3)nc2n1C1CC1,"6.31 µM [rising, partial curve]"
16,CCC(CC)C(=O)Nc1cccc(C(=O)N2CCOCC2)c1,"10 µM [falling, partial curve]"
17,N#CCCn1c(=O)c(CCc2ccccc2)nc2cnc(Nc3ccccc3)nc21,"5.01 µM [rising, partial curve]"
18,COC(=O)[C@H](CCSC)NC(=O)Nc1ccc(OC)cc1,"3.16 µM [rising, single point]"
19,COc1ccccc1NC(=O)Cn1c(=O)n2nc(C)nc2c2ccccc21,"7.94 µM [rising, partial curve]"
20,Cc1nc2cnc(N3CCN(C)CC3)nc2n(-c2ccccc2)c1=O,"12.6 µM [rising, partial curve]"
21,COc1cccc(C(=O)CSc2nnc(COc3cccc4cccnc34)o2)c1,"10 µM [rising, partial curve]"
22,O=c1[nH]nc(Sc2ncnc3sccc23)n1CCc1ccccc1,"2.51 µM [falling, full curve]"
23,Cc1cccc(S(=O)(=O)c2c(N)n(/N=C/c3ccco3)c3nc4ccccc4nc23)c1,"6.31 µM [rising, partial curve]"
24,O=C1c2ccccc2NC(c2ccc(Cl)cc2Cl)N1O (configuration not stated),"12.6 µM [falling, partial curve]"
25,COc1ccc(C(=O)N2CCC3(CCN(C(=O)Nc4cccc(C#N)c4)CC3)CC2)cc1,"25.1 µM [rising, single point]"
26,COc1cccc(C2=NOC(C(=O)Nc3cc(OC)c(OC)c(OC)c3)C2)c1 (configuration not stated),"7.94 µM [rising, partial curve]"

# Already shown: entries from further up.
row,Compound,AC50
7,CCOC(=O)c1c(C)n(C)c2ccc(OCC(O)CN3CCN(C)CC3)cc12 (configuration not stated),"12.6 µM [rising, partial curve]"
8,CCOc1ncccc1C(=O)OCC(=O)Nc1ncc(C(F)(F)F)cc1Cl,"5.01 µM [falling, single point]"
9,Cn1c(SCC(=O)Nc2ccccc2)nc(O)cc1=O,"0.00316 µM [falling, full curve, poor fit]"
10,Cc1cc(NC(=O)CSc2ccc3nnc(-c4cccc(F)c4)n3n2)no1,"0.631 µM [falling, partial curve]"
11,Oc1c(C(Nc2nc3ccccc3s2)c2ccco2)ccc2cccnc12 (configuration not stated),"20 µM [rising, single point]"
12,O=C(Cn1nnc(-c2ccc(Cl)cc2)n1)NCCC1=CCCCC1,"5.01 µM [falling, partial curve]"
13,CNc1nc(OC)nc(N2CCOCC2)n1,"10 µM [rising, partial curve]"
14,CC(C)N(Cc1nc(-c2ccccc2)no1)S(=O)(=O)c1ccccc1,"12.6 µM [falling, single point]"
15,O=c1c(-c2cccs2)nc2cnc(Oc3cccc(Cl)c3)nc2n1C1CC1,"6.31 µM [rising, partial curve]"
16,CCC(CC)C(=O)Nc1cccc(C(=O)N2CCOCC2)c1,"10 µM [falling, partial curve]"
17,N#CCCn1c(=O)c(CCc2ccccc2)nc2cnc(Nc3ccccc3)nc21,"5.01 µM [rising, partial curve]"
18,COC(=O)[C@H](CCSC)NC(=O)Nc1ccc(OC)cc1,"3.16 µM [rising, single point]"
19,COc1ccccc1NC(=O)Cn1c(=O)n2nc(C)nc2c2ccccc21,"7.94 µM [rising, partial curve]"
20,Cc1nc2cnc(N3CCN(C)CC3)nc2n(-c2ccccc2)c1=O,"12.6 µM [rising, partial curve]"
21,COc1cccc(C(=O)CSc2nnc(COc3cccc4cccnc34)o2)c1,"10 µM [rising, partial curve]"
22,O=c1[nH]nc(Sc2ncnc3sccc23)n1CCc1ccccc1,"2.51 µM [falling, full curve]"
23,Cc1cccc(S(=O)(=O)c2c(N)n(/N=C/c3ccco3)c3nc4ccccc4nc23)c1,"6.31 µM [rising, partial curve]"
24,O=C1c2ccccc2NC(c2ccc(Cl)cc2Cl)N1O (configuration not stated),"12.6 µM [falling, partial curve]"
25,COc1ccc(C(=O)N2CCC3(CCN(C(=O)Nc4cccc(C#N)c4)CC3)CC2)cc1,"25.1 µM [rising, single point]"

# (list continues)

row,Compound,AC50
1,COCCn1c(=O)c(-c2cc(F)cc(F)c2)nc2cnc(OCc3ccccc3)nc21,"25.1 µM [rising, single point]"
2,Nc1nc(SC/C=C\c2ccccc2)c2[nH]cnc2n1,"1.58 µM [rising, partial curve]"
3,COc1cc(C(=O)Nc2nncs2)cc(OC)c1OC,"12.6 µM [rising, single point]"
4,COc1cc(-c2csc(N3CCOCC3)n2)cc(OC)c1OC,"12.6 µM [rising, partial curve]"
5,COCCn1c(-c2ccc(-c3ccccc3Cl)o2)nc2c1c(=O)[nH]c(=O)n2CC(C)C,"7.94 µM [rising, partial curve]"
6,COc1ccc2cc(C(=O)N3CCCCCC3)sc(=O)c2c1OC,"12.6 µM [rising, single point]"
7,COCCCN1C(=O)C(=O)/C(=C(/O)c2ccc(OC(C)C)cc2)C1c1ccc(O)c(OC)c1 (configuration not stated),"0.0794 µM [falling, single point]"
8,CCOC(=O)n1c(SCC(=O)N(CC)CC)nc2ccccc21,"12.6 µM [rising, partial curve]"
9,Cc1nc2ncnn2c(N2CCN(C(c3ccccc3)c3ccccc3)CC2)c1C,"20 µM [falling, single point]"
10,CC1CCCN(C(=O)c2cc3c(-c4ccc(Cl)cc4)nn(C)c3s2)C1 (configuration not stated),"2.51 µM [rising, full curve]"
11,Cc1ccc(C(=O)Nc2nccs2)cc1S(=O)(=O)N1CCCCC1,"20 µM [rising, single point]"
12,Cn1nc(-c2ccc(Cl)cc2)c2cc(C(=O)N3CCN(c4ccccn4)CC3)sc21,"3.98 µM [rising, partial curve]"
13,CCOc1ccc(OCC)c(NC(=O)C2CCN(c3ncccn3)CC2)c1,"12.6 µM [rising, partial curve]"
14,COc1ccc(Cn2nnc3c(=O)[nH]c(C(=O)NCCc4ccc(F)cc4)nc32)cc1OC,"7.94 µM [rising, partial curve]"
15,Cc1ccc2c(c1)CCCN2C(=O)c1c(C)noc1C,"3.16 µM [falling, full curve]"
16,O=C(Nc1ccc2oc(-c3ccccc3)nc2c1)c1ccncc1,"3.98 µM [rising, partial curve]"
17,Cc1sc2nc(SCC(=O)N3CCOCC3)[nH]c(=O)c2c1C,"10 µM [rising, single point]"
18,O=C(Nc1ccc2nn(-c3ccccc3)nc2c1)c1ccc2c(c1)OCCO2,"10 µM [falling, partial curve]"
19,Cc1cc(C)n2nc(SCN3C(=O)c4ccccc4C3=O)nc2n1,"10 µM [rising, partial curve]"
20,O=C(Cn1cnc2ccccc2c1=O)NCC(=O)N1CCN(c2ccccn2)CC1,"0.0398 µM [falling, full curve]"
21,CC(C)n1cc(/C=C(\C#N)S(=O)(=O)c2ccccc2)c2ccccc21,"2 µM [rising, full curve, poor fit]"
22,Cc1occc1-c1nnc(SCC(=O)NCc2cccs2)n1-c1ccc(F)cc1,"20 µM [rising, single point]"
23,C=CCn1cnc2c(c1=O)c1nc3ccccc3nc1n2/N=C/c1cccc(OC)c1,"12.6 µM [rising, single point]"
24,O=C(NC1CCCC1)C(c1cccs1)N(CC1CCCO1)C(=O)Cc1cccs1 (configuration not stated),"0.0251 µM [falling, full curve, poor fit]"
25,COc1ccc(-c2noc(CCN3C(=O)c4ccccc4C3=O)n2)cc1OC,"6.31 µM [rising, partial curve]"
